# Measurements taken from PubChem BioAssay AID504456 (NMMLSC, 2011).
# This is one part of the list. The main result of the screen is listed elsewhere. These columns were measured beside it and carry no call.
# Test: rapamycin-like growth block in BY4741 yeast – BY4741 wild type, TORC1 bypass strain, mechanism study for yeast TOR pathway GFP screen (AID 504456)
# Conditions: S. cerevisiae BY4741 spot growth rating, 48-72 h, at 30 µM
row,Compound,growth rating (0-3)
1,CN1CCN(C(c2ccc(C(F)(F)F)cc2)c2ccc3cccnc3c2O)CC1 (stereo not drawn),3
2,COC(=O)c1cccc(-c2cc(Nc3cc(C)[nH]n3)nc(NCc3ccccc3)n2)c1,3
3,Cc1c(C(=O)Nc2nc(-c3ccccn3)cs2)oc2ccccc12,3
4,CNc1nc(N)c([N+](=O)[O-])c(Nc2ccc(F)cc2)n1,3
5,O=[N+]([O-])c1cc(Cl)c2cccnc2c1O,3
6,COc1ccc(C(=O)NC(=S)NNC(=O)c2cnccn2)cc1,3
7,Cc1ccc(NC(=O)c2cc(N3C(=O)C=CC3=O)ccc2N2CCOCC2)cc1Cl,3
8,CC(Oc1ccc(Cl)cc1)C(=O)NNC(=S)NC(=O)c1ccco1 (stereo not drawn),3
9,O=C(OCC(=O)N1CCN(C(=O)c2ccco2)CC1)c1cc(-c2cccc(Br)c2)nc2ccccc12,3
10,O=S(=O)(CCN(CCS(=O)(=O)C(F)(F)F)CC1CCCO1)C(F)(F)F (stereo not drawn),3
11,CNc1nc(N)c([N+](=O)[O-])c(Nc2cc(OC)ccc2OC)n1,3
12,CC1=NN(c2ccccc2)C(=O)C1C(c1ccccc1[N+](=O)[O-])C(C#N)C#N (stereo not drawn),3
13,O=C(Oc1c(Cl)cc(Cl)c2cccnc12)c1ccco1,0
14,CNc1nc(N)c([N+](=O)[O-])c(Nc2ccc(Cl)cc2)n1,3
15,COc1ccc([N+](=O)[O-])c(S(=O)(=O)c2ccccc2)n1,3
16,Cc1cc(C(=O)COC(=O)c2ccc[nH]c2=O)c(C)n1-c1ccccc1F,3
17,C/C(=N\NC(=O)c1ccc(C(C)(C)C)cc1)c1ccccn1,3
18,O=C(Nc1nc(-c2ccccn2)cs1)c1cc2ccccc2o1,3
19,O=C(Oc1ccnc2cc(Cl)ccc12)N1CCCCCC1,3

row,Compound,growth rating (0-3)
1,Nc1cc(Nc2cccc(F)c2)nc(NCc2ccccc2)n1,3
2,CNc1nc(N)cc(Nc2ccccc2F)n1,3
3,Nc1nc(NCc2ccccc2)nc(Nc2cccc(F)c2)c1[N+](=O)[O-],3
4,C/C(=N\NC(=O)c1cccc(Br)c1)c1ccccn1,3
5,O=[N+]([O-])c1c(NC2CCCCC2)nc(NCc2ccccc2)nc1N1CCOCC1,3
6,CSc1nnc2c3cc(F)ccc3n(C)c2n1,3
7,COc1ccccc1-c1cc(Nc2cc(C)[nH]n2)nc(NCc2ccccc2)n1,3
8,Cc1ccc2nc(Cl)c3nnnn3c2c1,0
9,CSC1=NS(=O)(=O)c2c(C)nn(C)c2S1,3
10,Nc1cc(Oc2cccc(Cl)c2)nc(NCc2ccccc2)n1,0
11,CNc1nc(N)c([N+](=O)[O-])c(NC2CCCCC2)n1,3
12,Nc1nc(NCC2CCCO2)nc(Nc2cccc(F)c2)c1[N+](=O)[O-] (stereo not drawn),3
13,CCN(CC)C(=O)Oc1ccnc2cc(Cl)ccc12,3
14,Cc1ccc(/C=C2/C(=O)ON=C2c2ccccc2)o1,3
15,CCCCC(=O)NNC(=S)NC(=O)c1ccc(C)cc1,3
16,O=[N+]([O-])c1cc(S(=O)(=O)C(F)(F)F)ccc1Sc1nc2ccccc2s1,3
17,O=c1/c(=C/c2cccc3ccccc23)sc2ncnn12,3
18,CNc1nc(N)c([N+](=O)[O-])c(Nc2ccc(OC)cc2)n1,3
19,CNc1nc(N)c([N+](=O)[O-])c(Nc2cccc(Cl)c2)n1,3

# Laid out differently: results already given
row | Compound | growth rating (0-3)
14 | CNc1nc(N)c([N+](=O)[O-])c(Nc2ccc(Cl)cc2)n1 | 3
19 | O=C(Oc1ccnc2cc(Cl)ccc12)N1CCCCCC1 | 3
8 | Cc1ccc2nc(Cl)c3nnnn3c2c1 | 0
